Assay results as given in the supplement of paper PMC12823440, “Inhibitors supercharge kinase turnover through native proteolytic circuits” (Nature, 2025).
Counter-ions that a name gives are not always drawn. The list shows a part of the results. Hit calls seldom repeat between salt and free forms of one compound.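 In K562 cells expressing nanoluciferase-fused kinases, luminescence was recorded at 4 h intervals between 2 and 18 h, normalized as percent of control with DMSO at 100% and a positive control at 0%. A significant (2 sigma) signal drop marks a time point as decreased. The authors' rule for a hit is not shown and takes in more than the number of time points.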

target: EGFR_L861Q (UniProt P00533); assay: number of time points (of 5) at which kinase-Nluc abundance scored as decreased, DMSO-normalised (count); higher = more persistent destabilization; conditions: K562; 2-18 h

SMILES	number of time points
CN1CC[C@H](c2c(O)cc(O)c3c(=O)cc(-c4ccc(C(F)(F)F)cc4Cl)oc23)[C@H]1CO [(2S,3R)-Voruciclib (hydrochloride)] (2.5 µM)	0
CCn1nc(C2CCN(C(=O)CCO)CC2)nc1-c1cnc(N)c(-c2nnc(C(C)(C)C)o2)n1 (10 µM)	0
O=C(O)c1ccccc1Nc1cccc(C(F)(F)F)c1 [Flufenamic acid] (10 µM)	0
CNC(=O)c1ccc(-c2cnc3cnc(-c4ccccc4)cn23)cc1 (10 µM)	0
Nc1cccc(S(=O)(=O)N2CCCN(S(=O)(=O)c3ccc4c(c3)OCCO4)CC2)c1 (10 µM)	0
CC1(COc2ccc3c(c2)ncn3-c2ccc3cccc(N4CCC(N)CC4)c3n2)COC1 [Crenolanib] (2.5 µM)	0
O=C(CCCCCn1cc(Nc2ncc(Cl)c(Nc3ccc(Cl)cc3)n2)cn1)NO (2.5 µM)	0
CC(C)n1cnc2c(Nc3cccc(Cl)c3)nc(NCCO)nc21 (10 µM)	0
COc1ccc(CCNc2ncc3c(=O)n(-c4cccc(F)c4)c(=O)[nH]c3n2)cc1OC (2 µM)	0
OCCN(CCO)c1ccc(C(c2ccc(Cl)cc2)c2ccc(N(CCO)CCO)cc2)cc1 (10 µM)	0
CSc1ccc(CN2CCCC(Nc3ccc4[nH]ncc4c3)C2)cc1 (configuration not stated) [Rho-Kinase-IN-1] (10 µM)	0
COc1cc(C(=O)N2CCC(N3CCN(C)CC3)CC2)ccc1Nc1ncc2c(n1)N(C)c1ccccc1C(=O)N2C (10 µM)	0
